This passage reports AC50 and cell number change results from PubChem BioAssay AID2685 (National Center for Advancing Translational Sciences (NCATS), 2010).

This is one part of the list. Further columns of the screen follow, without active or inactive calls. The list favours compounds with an active or inconclusive main result. The note in brackets gives the kind of curve behind each potency; many fits are weak.

The nature of this assay: qHTS Assay for Lipid Storage Modulators in Drosophila S3 Cells.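 As to cell number change: cells counted by Cell Tracker Red CMTPX staining in the red channel.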 To be noted: BODIPY lipid droplet fluorescence, 18-24 h; for cell number change: measured here: cell count max response, cells fed with added oleic acid. In outline:
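Drosophila S3 cells got compounds at several concentrations plus oleic acid (400 uM solution). Laser-scanning cytometry with 488 nm excitation read lipid droplets at 500-530 nm and cells at 575-640 nm. Percent activity was relative to 20 uM Triacsin C.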

Where [1] appears, read: measured here: lipid fluorescence (Fed channel) AC50, cells fed with added oleic acid.
Where [2] appears, read: measured here: cell number channel AC50, cells fed with added oleic acid.

`Cc1cccc(-c2cc3nc(C)cc(NCCCN(C)C)n3n2)c1`: the AC50 under setting [1] is 0.411 µM [rising, single point].

As to `O=c1n(-c2ccccc2)c(=O)n2n1CCC2`, the cell number change came to 20.6%. Besides, under setting [1], the AC50 was 0.13 µM [falling, full curve, poor fit].

Take `O=C(CSc1nnc2sc3ccccc3n12)NCc1ccco1`: the cell number change was 23.6%. Moreover, under setting [2], the AC50 is 6.51 µM [rising, single point]. Under setting [1], the AC50 is 6.51 µM [rising, single point]. `Cc1ccc(C2CC(=O)c3cnc(NC(=O)c4ccco4)nc3C2)cc1` (configuration not stated): the cell number change is 33.5%. Under setting [2], the concentration at half-maximal activity (AC50) was 7.31 µM [rising, partial curve]. `CC(=O)N1CCN(c2ccc(NC(=O)C(c3ccccc3)c3ccccc3)cc2)CC1`: the cell number change was -28%. Moreover, under setting [1], the concentration at half-maximal activity (AC50) was 16.4 µM [falling, partial curve].

Turning to `O=C(NCC1CCOCC1)c1ccc2nc(Cc3cccc(Cl)c3)oc2c1`, the cell number change was 8.65%. Moreover, the half-maximal activity concentration (AC50) under setting [1] was 18.4 µM [rising, single point]. In the case of `FC(F)c1nnc2ccc(Cl)nn12`, the cell number change is 7.18%. `CCCCNc1ccc(C(CC(N)=O)NC(=O)c2ccccc2)cc1[N+](=O)[O-]` (configuration not stated): the cell number change is 11.3%. In addition, the AC50 under setting [1] was 6.51 µM [rising, partial curve]. As for `COc1ccc(N(C(=O)c2ccco2)C(C(=O)NC2CCCC2)c2ccc(C)cc2)c(OC)c1` (configuration not stated), the cell number change is 21.8%. Further, the AC50 under setting [1] was 0.116 µM [rising, full curve, poor fit].

For `O=c1[nH]c(Nc2ccc3c(c2)OCCO3)nnc1Cc1ccc(Cl)cc1`, the cell number change was 3.01%.

Take `O=C(Nc1nnc(-c2ccccc2)o1)C1CCCCC1`: the cell number change came out at 2.08%. In addition, the concentration at half-maximal activity (AC50) under setting [2] was 0.731 µM [falling, full curve]. Further, the concentration at half-maximal activity (AC50) under setting [1] is 6.51 µM [falling, single point]. As to `O=C(NNc1ccccn1)C(c1ccccc1)c1ccccc1`, the cell number change is -35.9%. In addition, the half-maximal activity concentration (AC50) under setting [2] is 0.731 µM [rising, partial curve, poor fit]. Also, under setting [1], the AC50 was 1.84 µM [falling, partial curve].

For the compound `Cc1nnc(SCC(=O)Nc2ccc(N(C)C)cc2)n(N)c1=O`, the cell number change was 22.6%. The half-maximal activity concentration (AC50) under setting [2] is 0.00517 µM [rising, full curve, poor fit].

As to `S=C(N/N=C/c1ccc2ncccc2c1)Nc1ccccc1`, under setting [2], the half-maximal activity concentration (AC50) is 0.461 µM [rising, full curve]. Regarding `COc1cc(CNc2ccc(N3CCCC3)cc2)cc(Cl)c1OC`, the cell number change is -53.4%. For the same compound, under setting [2], the half-maximal activity concentration (AC50) was 32.6 µM [falling, single point]. The AC50 under setting [1] is 20.6 µM [falling, partial curve, poor fit]. With `O=C(NNS(=O)(=O)c1ccc(F)cc1)C1CCCCC1`, the cell number change came out at 2.52%. Moreover, the AC50 under setting [1] is 0.206 µM [falling, single point].

As to `CCC/C=N/NC(=O)c1cccc(Br)c1`, the cell number change is -12.1%. Besides, under setting [2], the AC50 is 0.0058 µM [falling, full curve, poor fit]. Under setting [1], the AC50 is 0.0058 µM [falling, full curve, poor fit]. Consider `CCNC(=O)C12CCC(C)(C(=O)C1Br)C2(C)C` (configuration not stated), for which the cell number change was -14.9%. Further, under setting [1], the half-maximal activity concentration (AC50) was 3.66 µM [falling, single point]. As to `CCOC(=O)N1CCN(c2nc(-c3ccc(F)cc3)cs2)CC1`, the cell number change was 129%. Moreover, the concentration at half-maximal activity (AC50) under setting [2] was 16.4 µM [rising, partial curve]. Also, the half-maximal activity concentration (AC50) under setting [1] is 18.4 µM [rising, partial curve].

Regarding `O=C1O/C(=C/c2ccccc2)c2ccccc21`, the cell number change is 28.7%. For the same compound, the AC50 under setting [1] is 1.16 µM [rising, full curve]. As for `CC(=O)c1c(OC(=O)c2ccccc2)ccnc1C(F)(F)F`, the cell number change is 6.12%. `Oc1ccc(CNc2ccccc2)c2cccnc12`: the cell number change is -21%. Further, the AC50 under setting [1] is 0.00461 µM [falling, full curve, poor fit]. For the compound `CCOC(=O)CSc1nnc(N)s1`, the cell number change is 1.14%. For the same compound, the concentration at half-maximal activity (AC50) under setting [1] was 16.4 µM [falling, single point]. Consider `COc1ccc(N2CC(O)=C(c3nc(-c4ccc(Cl)cc4)cs3)C2=N)cc1`, for which the cell number change was -23.5%. Also, the AC50 under setting [1] was 29.1 µM [falling, single point].

Regarding `O=C(Nc1ccc(F)cc1)Nc1nnc(-c2ccccc2)o1`, the cell number change amounted to 24.8%. In addition, the AC50 under setting [1] was 29.1 µM [rising, single point]. Regarding `O=C(Cc1n[nH]c(=O)c2ccccc12)Nc1cccc(S(=O)(=O)N2CCCC2)c1`, the cell number change was 9.47%. For the same compound, the AC50 under setting [1] is 29.1 µM [rising, single point]. For `COc1ccc(NC(=O)c2cncn2-c2ccccc2)cc1`, the cell number change was determined as 5.83%. Also, under setting [1], the AC50 was 0.206 µM [falling, partial curve].

Consider `Fc1ccc(C(CCCn2nnc(-c3cccnc3)n2)c2ccc(F)cc2)cc1`, for which the cell number change was -40.5%. In addition, under setting [2], the half-maximal activity concentration (AC50) is 14.6 µM [falling, partial curve, poor fit]. Besides, the half-maximal activity concentration (AC50) under setting [1] is 16.4 µM [falling, partial curve].

`Cc1ccc(-n2nnnc2CNC(=O)C2CC(=O)N(c3ccc(F)cc3)C2)cc1C` (configuration not stated): the cell number change is 34.4%. Turning to `COc1cc(C(=O)OCC(=O)NCc2ccco2)cc(OC)c1OC`, the cell number change worked out at 2.78%. In addition, the AC50 under setting [1] is 0.116 µM [rising, full curve, poor fit]. In the case of `Cc1cc(CSc2ccccc2)ccc1NC(=O)COc1ccccc1`, the cell number change was 11%. `CCOc1ccc2oc(C(=O)OCC(=O)NC3CCCC3)c(C)c2c1`: the cell number change is -62.9%. For the same compound, the AC50 under setting [2] is 32.6 µM [falling, partial curve]. Moreover, the concentration at half-maximal activity (AC50) under setting [1] is 20.6 µM [falling, partial curve]. Take `CCOc1ncccc1C(=O)OCC(=O)c1cccc(Br)c1`: the cell number change was 106%. The AC50 under setting [2] was 18.4 µM [rising, single point]. The AC50 under setting [1] was 29.1 µM [rising, single point]. Take `COc1cc(S(=O)(=O)Nc2cccc(C)c2)ccc1NC(=O)c1ccncc1`: the cell number change was -2.1%. Moreover, under setting [1], the AC50 was 20.6 µM [falling, single point]. As to `Cc1ccc2cc(CN(c3cccc(C)c3C)S(=O)(=O)c3ccccc3)c(=O)[nH]c2c1`, the cell number change was -7.03%. The same measure, in the same setting: then `CCCNC(=O)C1CCN(c2nc(C)cc(C)n2)CC1`, with 15.7%; and `C=CCNC(=O)CN1CCC(c2nc3cc(C)c(C)cc3[nH]2)CC1`, with 6.94%. `Cc1nnc(SCc2ccccn2)n(N)c1=O`: the cell number change is -14.6%. Further, the AC50 under setting [1] is 3.26 µM [falling, single point]. For the compound `O=C(CN1C(=O)c2ccccc2C1=O)Nc1cccc(O)c1`, the cell number change turned out to be 0.587%.

Take `NS(=O)(=O)c1ccc(NC(=O)COC(=O)CSCc2ccc(F)cc2)cc1`: the cell number change stood at 21.7%. Moreover, the AC50 under setting [2] is 2.91 µM [falling, single point].

With `O=C(c1cc2ncc(Br)cn2n1)N1CCN(C(=O)c2ccco2)CC1`, the cell number change came to 191%. Also, under setting [2], the AC50 is 10.3 µM [rising, partial curve]. Also, the half-maximal activity concentration (AC50) under setting [1] is 1.84 µM [rising, partial curve]. In the case of `N#C/C(=C\c1ccc(N2CCOCC2)o1)C(=O)NCCc1ccccc1`, the cell number change is -28.6%. In addition, the AC50 under setting [1] is 18.4 µM [falling, partial curve]. Consider `Cc1ccccc1CN1CCN(C(=O)c2ccc(F)cc2)CC1`, for which the cell number change was 9.34%. Regarding `CCOc1ccc(NCC(=O)N/N=C/C=C/c2ccccc2)cc1`, the cell number change was 0.868%. Besides, the AC50 under setting [1] is 4.11 µM [rising, partial curve, poor fit].

Regarding `CC(=O)C1C(c2cccc(F)c2)c2c(n[nH]c2C)CC1(C)O` (configuration not stated), the cell number change is -6.78%. Also, the concentration at half-maximal activity (AC50) under setting [1] is 29.1 µM [falling, single point]. For the compound `COc1cc2c(cc1OC)CN(C(=O)COc1ccc(C#N)cc1)CC2`, the half-maximal activity concentration (AC50) under setting [1] is 6.51 µM [rising, single point]. Turning to `CN(Cc1cnn(-c2ccccc2)c1)C(=O)C1CCC(=O)N(C2CC2)C1` (configuration not stated), the cell number change was determined as 21.1%. Turning to `O=C(COc1ccc2c(c1)OCO2)Nc1cccc(F)c1`, the cell number change was -20%. The AC50 under setting [1] is 29.1 µM [rising, single point]. Regarding `Cc1nn(Cc2ccccc2)c(N)c1C#N`, the cell number change is -9.1%.

On to `CN(C)CCNC(=O)/C(=C/c1ccc(-c2cccc([N+](=O)[O-])c2)o1)NC(=O)c1ccccc1`, for which the cell number change was 19.4%. Moreover, under setting [1], the AC50 is 2.59 µM [rising, partial curve, poor fit]. Turning to `O=C(CN1C(=O)c2ccccc2S1(=O)=O)N1CCc2ccccc2C1`, the cell number change was 0.255%. Further, the half-maximal activity concentration (AC50) under setting [1] is 29.1 µM [rising, single point]. With `CCOC(=O)C1=C(C)N=C2SC(C)C(=O)N2C1c1ccc(C(=O)OC)cc1` (configuration not stated), the cell number change is -29.6%. The concentration at half-maximal activity (AC50) under setting [1] was 0.103 µM [falling, full curve].

`Cc1oc2c(C)c3oc(=O)c(CC(=O)N[C@@H](CCCNC(N)=O)C(=O)O)c(C)c3cc2c1C`: the half-maximal activity concentration (AC50) under setting [1] is 18.4 µM [rising, partial curve, poor fit].

Take `O=S(=O)(Nc1cccc(-c2nc3cccnc3s2)c1)c1cccs1`: the cell number change is 17.1%. The AC50 under setting [1] was 0.058 µM [rising, full curve, poor fit].

`NNc1nc2ccc(Cl)cc2s1`: the cell number change is -4.83%. For the same compound, the AC50 under setting [1] was 16.4 µM [falling, single point]. With `C/C(Cn1nnc([N+](=O)[O-])n1)=N\NC(=O)c1ccc(Cl)c(Cl)c1`, the cell number change is -16.6%. For the same compound, the AC50 under setting [1] was 0.731 µM [rising, single point].

As to `COc1cccc(NC(=O)CSc2nc3c(sc4ccccc43)c(=O)n2CCCN2CCCC2)c1`, the cell number change is 64.5%. Besides, under setting [2], the AC50 was 29.1 µM [rising, single point]. Moreover, under setting [1], the half-maximal activity concentration (AC50) was 29.1 µM [falling, single point]. In the case of `COc1ccc(OC)c(NC(=O)Nc2ccc(Cl)cc2)c1`, the cell number change was -99%. Moreover, under setting [2], the AC50 is 16.4 µM [falling, partial curve, poor fit]. For the same compound, the AC50 under setting [1] was 25.9 µM [falling, partial curve]. For `Cc1cc(C)n(-c2ccc(C(=O)Oc3ccc4c(c3)OCO4)cc2)n1`, the cell number change stood at 176%. Also, the half-maximal activity concentration (AC50) under setting [2] is 20.6 µM [rising, single point]. Take `COc1ccc(NC(=O)N2c3ccc(OC)cc3C(C)=CC2(C)C)cc1`: the cell number change is -54.2%. For the same compound, under setting [2], the AC50 is 20.6 µM [falling, single point]. Besides, the half-maximal activity concentration (AC50) under setting [1] is 23.1 µM [falling, single point]. For the compound `CC(Oc1ccccc1F)c1nnc(SCC(=O)NCc2ccc3c(c2)OCO3)o1` (configuration not stated), the cell number change was 21.4%. In addition, under setting [1], the AC50 was 0.103 µM [rising, partial curve, poor fit]. Turning to `CCOC(=O)N1CCC(N2C(=O)c3ccc(C(=O)O)cc3C2=O)CC1`, the cell number change was -98.9%. Under setting [2], the AC50 was 29.1 µM [falling, partial curve]. Under setting [1], the AC50 was 23.1 µM [falling, partial curve].
